For at least one entry, the source does not settle the construct or the ends of the probe.

This data set concerns thrombin. Description: thrombin inhibition (apparent Ki). The settings on record: no binding assay done in this paper (SEC, CD/UV melting, analysis of published structures); folded or branched DNA.

Consider GGTTGGGTAGGGTGG [NU (00a)], for which the Ki amounted to 0.046 µM.
